The numbers were not newly measured in US6982157B1, “Drug combinations comprising (E)-7-[4-(4-fluorophenyl)-6-isopropyl-2-[methylsulfonyl)amino] pyrimidin-5-yl] (3r,5s) -3,5-dihydroxyhept-6-enoic acid and an inhibitor, inducer or substrate of p450 isoenzyme 3A4” (AstraZeneca AB, priority 1999, dated 2006), which cites them from elsewhere.

The data set relates to cytochrome P450 enzymes, in particular 3A4. The following applies: cited from earlier work.

On to `CC(C)c1c(C(=O)Nc2ccccc2)c(-c2ccccc2)c(-c2ccc(F)cc2)n1CC[C@@H](O)C[C@@H](O)CC(=O)O` [atorvastatin], for which the “metabolism by cytochrome P450 enzymes, in particular 3A4” value was “is metabolised”.
